In the supplement of paper PMC10849652 one finds log2 fold change data, which are given here for 24 targets.

Sequences of proteins named here, by UniProt entry; tags and fusion partners are left off. A change or cut given only in a name is not applied to a line headed by its entry.
UniProt Q5VTD9: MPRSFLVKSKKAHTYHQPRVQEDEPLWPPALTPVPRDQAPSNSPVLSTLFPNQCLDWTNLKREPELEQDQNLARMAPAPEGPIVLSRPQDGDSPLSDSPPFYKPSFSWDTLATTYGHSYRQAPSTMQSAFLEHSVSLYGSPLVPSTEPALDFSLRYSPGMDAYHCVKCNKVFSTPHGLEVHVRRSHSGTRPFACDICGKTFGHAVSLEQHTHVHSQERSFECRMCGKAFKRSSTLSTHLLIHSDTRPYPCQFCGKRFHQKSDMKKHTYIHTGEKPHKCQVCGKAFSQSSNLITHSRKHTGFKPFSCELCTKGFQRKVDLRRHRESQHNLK
UniProt Q8TAK5: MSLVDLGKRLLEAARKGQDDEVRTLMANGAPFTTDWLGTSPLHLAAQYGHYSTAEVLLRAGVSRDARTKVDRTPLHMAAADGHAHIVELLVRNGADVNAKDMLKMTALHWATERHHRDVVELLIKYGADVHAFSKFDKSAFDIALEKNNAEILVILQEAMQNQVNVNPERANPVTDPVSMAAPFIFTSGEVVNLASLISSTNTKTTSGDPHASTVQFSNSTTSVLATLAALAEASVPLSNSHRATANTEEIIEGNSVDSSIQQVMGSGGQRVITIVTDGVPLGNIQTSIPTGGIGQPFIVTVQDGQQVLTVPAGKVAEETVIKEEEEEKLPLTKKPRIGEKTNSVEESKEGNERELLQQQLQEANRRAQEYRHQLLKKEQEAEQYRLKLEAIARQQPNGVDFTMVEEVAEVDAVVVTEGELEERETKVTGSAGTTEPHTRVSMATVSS
UniProt Q9UN86: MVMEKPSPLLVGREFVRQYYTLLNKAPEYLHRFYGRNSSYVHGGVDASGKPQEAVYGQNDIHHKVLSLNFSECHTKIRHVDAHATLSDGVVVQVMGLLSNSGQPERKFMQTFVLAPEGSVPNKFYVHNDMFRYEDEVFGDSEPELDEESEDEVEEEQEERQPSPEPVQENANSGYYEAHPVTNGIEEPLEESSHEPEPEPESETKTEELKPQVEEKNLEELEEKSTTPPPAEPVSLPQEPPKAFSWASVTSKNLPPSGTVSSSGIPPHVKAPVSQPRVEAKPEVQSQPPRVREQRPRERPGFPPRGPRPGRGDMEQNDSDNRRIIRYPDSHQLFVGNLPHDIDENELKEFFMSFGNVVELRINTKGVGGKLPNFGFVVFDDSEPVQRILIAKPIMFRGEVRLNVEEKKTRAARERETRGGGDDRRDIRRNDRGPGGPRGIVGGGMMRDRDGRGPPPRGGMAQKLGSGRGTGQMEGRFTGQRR
UniProt Q8TET4: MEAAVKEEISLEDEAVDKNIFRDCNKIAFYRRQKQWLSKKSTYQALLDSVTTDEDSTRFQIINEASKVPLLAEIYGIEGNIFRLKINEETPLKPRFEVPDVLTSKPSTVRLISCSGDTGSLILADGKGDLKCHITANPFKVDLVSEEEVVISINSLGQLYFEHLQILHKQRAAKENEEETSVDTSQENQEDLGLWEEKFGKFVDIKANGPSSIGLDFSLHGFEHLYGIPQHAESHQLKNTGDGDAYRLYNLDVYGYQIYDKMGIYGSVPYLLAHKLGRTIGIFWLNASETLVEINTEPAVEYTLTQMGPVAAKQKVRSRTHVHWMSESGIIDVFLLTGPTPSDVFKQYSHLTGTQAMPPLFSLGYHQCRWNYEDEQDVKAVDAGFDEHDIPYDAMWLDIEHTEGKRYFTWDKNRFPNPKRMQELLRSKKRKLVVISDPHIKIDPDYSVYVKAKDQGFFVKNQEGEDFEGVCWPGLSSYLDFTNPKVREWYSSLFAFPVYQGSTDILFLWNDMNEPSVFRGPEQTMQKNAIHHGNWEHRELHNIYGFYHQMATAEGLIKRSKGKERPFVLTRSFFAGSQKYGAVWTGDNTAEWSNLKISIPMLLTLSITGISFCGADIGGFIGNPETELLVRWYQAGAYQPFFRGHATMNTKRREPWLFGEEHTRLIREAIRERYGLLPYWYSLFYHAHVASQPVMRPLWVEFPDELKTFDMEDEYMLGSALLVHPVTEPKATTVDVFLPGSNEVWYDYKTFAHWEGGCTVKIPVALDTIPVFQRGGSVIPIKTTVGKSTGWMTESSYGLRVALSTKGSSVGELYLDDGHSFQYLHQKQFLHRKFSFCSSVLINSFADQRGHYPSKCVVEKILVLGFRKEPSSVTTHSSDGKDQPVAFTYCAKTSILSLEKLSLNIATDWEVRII
UniProt Q13467, whole entry, looked up: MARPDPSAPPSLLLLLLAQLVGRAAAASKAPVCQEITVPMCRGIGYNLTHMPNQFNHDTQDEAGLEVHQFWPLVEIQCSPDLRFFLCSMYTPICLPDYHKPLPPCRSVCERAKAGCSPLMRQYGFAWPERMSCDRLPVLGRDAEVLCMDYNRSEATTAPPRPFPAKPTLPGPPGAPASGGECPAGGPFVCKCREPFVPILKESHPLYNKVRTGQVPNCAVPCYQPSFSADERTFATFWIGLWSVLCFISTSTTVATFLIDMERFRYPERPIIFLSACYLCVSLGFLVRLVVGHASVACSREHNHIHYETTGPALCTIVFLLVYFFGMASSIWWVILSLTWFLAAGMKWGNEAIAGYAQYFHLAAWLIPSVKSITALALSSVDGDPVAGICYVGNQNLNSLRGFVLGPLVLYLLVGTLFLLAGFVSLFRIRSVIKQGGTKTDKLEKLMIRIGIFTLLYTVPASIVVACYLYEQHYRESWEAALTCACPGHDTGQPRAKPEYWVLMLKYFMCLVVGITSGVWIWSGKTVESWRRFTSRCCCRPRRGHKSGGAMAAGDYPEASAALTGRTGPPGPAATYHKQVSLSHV
UniProt Q05932: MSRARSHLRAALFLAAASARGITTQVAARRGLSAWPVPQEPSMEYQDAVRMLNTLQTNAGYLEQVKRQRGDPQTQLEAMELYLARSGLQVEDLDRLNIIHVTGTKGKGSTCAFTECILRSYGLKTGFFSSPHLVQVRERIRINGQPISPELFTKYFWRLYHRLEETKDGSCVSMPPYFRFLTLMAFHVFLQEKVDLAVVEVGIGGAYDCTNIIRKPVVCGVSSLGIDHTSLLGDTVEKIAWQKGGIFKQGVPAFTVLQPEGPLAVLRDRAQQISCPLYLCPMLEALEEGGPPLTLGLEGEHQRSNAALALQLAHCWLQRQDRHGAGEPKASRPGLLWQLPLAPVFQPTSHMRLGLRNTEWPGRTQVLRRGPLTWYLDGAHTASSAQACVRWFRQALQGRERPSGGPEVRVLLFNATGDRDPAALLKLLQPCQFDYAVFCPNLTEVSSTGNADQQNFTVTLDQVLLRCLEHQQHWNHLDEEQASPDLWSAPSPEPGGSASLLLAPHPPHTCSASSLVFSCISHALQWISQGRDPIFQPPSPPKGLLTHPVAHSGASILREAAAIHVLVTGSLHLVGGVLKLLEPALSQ
UniProt P15976: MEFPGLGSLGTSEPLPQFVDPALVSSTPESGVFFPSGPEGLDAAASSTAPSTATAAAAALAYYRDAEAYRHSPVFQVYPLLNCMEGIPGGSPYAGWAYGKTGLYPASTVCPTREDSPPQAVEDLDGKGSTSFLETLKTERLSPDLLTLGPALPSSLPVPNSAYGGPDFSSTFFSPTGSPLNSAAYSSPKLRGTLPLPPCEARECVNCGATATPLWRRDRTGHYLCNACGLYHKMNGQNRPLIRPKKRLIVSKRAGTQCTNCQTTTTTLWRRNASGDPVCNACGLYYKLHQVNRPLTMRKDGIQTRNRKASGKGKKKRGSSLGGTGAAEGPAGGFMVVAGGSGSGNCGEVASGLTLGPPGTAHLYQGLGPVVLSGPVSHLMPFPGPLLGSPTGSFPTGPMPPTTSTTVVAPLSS
UniProt P58012: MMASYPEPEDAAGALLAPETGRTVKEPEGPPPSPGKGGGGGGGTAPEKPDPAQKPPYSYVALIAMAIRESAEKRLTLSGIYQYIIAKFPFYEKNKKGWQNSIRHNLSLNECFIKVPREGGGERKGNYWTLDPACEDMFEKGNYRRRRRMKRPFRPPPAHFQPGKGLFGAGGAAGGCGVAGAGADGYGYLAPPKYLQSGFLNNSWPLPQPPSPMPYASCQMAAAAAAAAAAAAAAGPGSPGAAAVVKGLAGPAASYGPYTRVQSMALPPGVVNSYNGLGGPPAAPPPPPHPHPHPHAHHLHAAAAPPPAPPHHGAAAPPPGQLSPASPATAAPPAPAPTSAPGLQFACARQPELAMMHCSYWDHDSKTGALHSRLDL
UniProt Q14393: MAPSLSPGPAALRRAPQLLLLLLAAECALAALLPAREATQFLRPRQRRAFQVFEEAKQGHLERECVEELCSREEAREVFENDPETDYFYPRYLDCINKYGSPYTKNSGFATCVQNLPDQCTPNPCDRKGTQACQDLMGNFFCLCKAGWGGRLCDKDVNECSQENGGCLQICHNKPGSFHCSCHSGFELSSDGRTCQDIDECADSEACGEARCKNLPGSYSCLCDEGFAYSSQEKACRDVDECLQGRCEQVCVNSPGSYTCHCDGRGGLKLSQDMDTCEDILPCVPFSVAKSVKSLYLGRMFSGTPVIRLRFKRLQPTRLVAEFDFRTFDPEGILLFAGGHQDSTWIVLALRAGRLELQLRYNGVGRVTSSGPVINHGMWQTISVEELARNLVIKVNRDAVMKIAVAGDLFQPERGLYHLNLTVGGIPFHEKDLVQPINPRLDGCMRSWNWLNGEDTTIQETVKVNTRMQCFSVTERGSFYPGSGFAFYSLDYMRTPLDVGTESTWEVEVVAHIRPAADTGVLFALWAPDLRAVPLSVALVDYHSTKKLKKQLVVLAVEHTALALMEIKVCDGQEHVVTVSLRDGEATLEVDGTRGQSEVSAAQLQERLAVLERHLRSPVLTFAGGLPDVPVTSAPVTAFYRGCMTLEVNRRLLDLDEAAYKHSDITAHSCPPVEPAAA
UniProt Q14435: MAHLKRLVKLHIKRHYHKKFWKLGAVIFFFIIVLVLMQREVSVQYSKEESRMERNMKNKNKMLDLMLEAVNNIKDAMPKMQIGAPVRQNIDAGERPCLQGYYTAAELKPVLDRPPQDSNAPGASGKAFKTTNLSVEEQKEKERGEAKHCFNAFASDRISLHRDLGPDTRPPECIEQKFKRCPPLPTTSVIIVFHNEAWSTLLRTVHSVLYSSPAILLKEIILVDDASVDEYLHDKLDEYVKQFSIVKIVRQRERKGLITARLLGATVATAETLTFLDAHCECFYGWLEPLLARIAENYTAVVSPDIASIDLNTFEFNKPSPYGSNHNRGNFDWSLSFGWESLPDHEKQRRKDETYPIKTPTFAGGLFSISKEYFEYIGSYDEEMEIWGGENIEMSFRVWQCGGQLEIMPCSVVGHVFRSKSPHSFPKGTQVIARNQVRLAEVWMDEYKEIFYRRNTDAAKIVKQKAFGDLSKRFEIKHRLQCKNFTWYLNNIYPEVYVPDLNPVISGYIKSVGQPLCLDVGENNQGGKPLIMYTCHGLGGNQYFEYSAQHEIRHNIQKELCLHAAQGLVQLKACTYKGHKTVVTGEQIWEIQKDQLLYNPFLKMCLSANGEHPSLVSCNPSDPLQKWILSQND
UniProt P19526, whole entry, looked up: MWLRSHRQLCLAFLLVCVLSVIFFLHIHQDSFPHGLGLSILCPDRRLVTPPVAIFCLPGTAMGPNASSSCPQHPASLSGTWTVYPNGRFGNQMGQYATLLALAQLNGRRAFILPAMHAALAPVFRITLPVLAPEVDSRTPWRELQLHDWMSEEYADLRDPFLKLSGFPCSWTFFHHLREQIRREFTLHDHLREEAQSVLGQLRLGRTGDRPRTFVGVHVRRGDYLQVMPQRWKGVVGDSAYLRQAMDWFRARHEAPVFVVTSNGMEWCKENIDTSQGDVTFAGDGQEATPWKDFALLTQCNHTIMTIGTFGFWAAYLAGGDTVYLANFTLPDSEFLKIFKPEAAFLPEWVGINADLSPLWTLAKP
UniProt Q495W5: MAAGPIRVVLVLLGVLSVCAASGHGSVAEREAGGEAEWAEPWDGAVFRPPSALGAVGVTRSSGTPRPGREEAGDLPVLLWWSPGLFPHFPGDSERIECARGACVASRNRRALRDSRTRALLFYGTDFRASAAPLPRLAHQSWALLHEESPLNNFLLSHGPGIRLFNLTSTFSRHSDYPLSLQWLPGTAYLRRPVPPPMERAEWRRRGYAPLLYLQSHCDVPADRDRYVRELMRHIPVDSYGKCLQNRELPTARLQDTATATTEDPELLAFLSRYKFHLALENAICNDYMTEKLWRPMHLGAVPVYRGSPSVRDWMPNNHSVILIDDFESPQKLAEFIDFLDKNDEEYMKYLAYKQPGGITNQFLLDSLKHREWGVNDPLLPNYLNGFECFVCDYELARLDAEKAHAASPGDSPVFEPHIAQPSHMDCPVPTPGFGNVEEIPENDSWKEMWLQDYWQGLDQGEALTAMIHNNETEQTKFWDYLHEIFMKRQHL
UniProt Q9H840: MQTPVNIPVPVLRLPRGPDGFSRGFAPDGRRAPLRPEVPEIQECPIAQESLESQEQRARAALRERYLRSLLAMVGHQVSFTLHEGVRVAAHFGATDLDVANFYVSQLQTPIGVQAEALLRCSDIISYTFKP
UniProt P24522: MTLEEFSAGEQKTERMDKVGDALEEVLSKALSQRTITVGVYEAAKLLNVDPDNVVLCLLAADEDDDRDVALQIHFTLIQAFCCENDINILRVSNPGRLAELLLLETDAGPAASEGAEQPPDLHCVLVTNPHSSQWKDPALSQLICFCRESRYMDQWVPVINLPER

Some of the results follow.

Compound in the first experiment: CN1CCN(CCOc2cc(OC3CCOCC3)c3c(Nc4c(Cl)ccc5c4OCO5)ncnc3c2)CC1 [saracatinib]
The experiment is described as follows: log2 fold change, soluble protein after heating vs DMSO (PISA); higher = thermal stabilisation; K562 lysate, 10 uM; active = over 0.2 and 3.5 SD of the protein, either way, in both replicates (recomputed). A digest of the protocol: (§1)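 Log-two fold change in thermal stability relative to solvent controls is reported from duplicates. For each sample, crude K562 extract from dounce-homogenised pellets in PBS pH 7.4 with 1 mM MgCl2, at 1 mg/mL protein, was treated with 10 μM compound for 30 min. Aliquots heated for 3 min across 48°C-58°C were pooled, brought to 0.5% NP-40 at 4°C and cleared at 21,000xg for 90 min. The supernatant was quantified by TMTpro 16plex LC-MS/MS with channel sums equalised.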
For GFI1B (UniProt Q5VTD9), the log2 fold change was inactive: 0.038.
The same measure, in the same setting: the same measure for FSIP2 (UniProt Q5CZC0): inactive: 0.096; for FUS (UniProt H3BPE7): inactive: -0.108; for GABPB2 (UniProt Q8TAK5): inactive: -0.106.
With FUT4 (UniProt P22083), the log2 fold change was inactive: 0.064.
Consider G3BP2 isoform 2 (UniProt Q9UN86), for which the log2 fold change was inactive: 0.017.
Turning to GANC (UniProt Q8TET4), the log2 fold change was inactive: -0.089.
Turning to GAB3 isoform 2 (UniProt Q8WWW8), the log2 fold change was inactive: -0.059.
On to FZD5 (UniProt Q13467), for which the log2 fold change was inactive: -0.274.
For the target FPGS (UniProt Q05932), the log2 fold change was inactive: 0.099.
As to GATA1 (UniProt P15976), the log2 fold change was inactive: 0.072.
As to GBA2 (UniProt Q9HCG7), the log2 fold change is inactive: 0.033.
In the case of GDE1 (UniProt Q9NZC3), the log2 fold change was inactive: 0.035.
Consider FOXL2 (UniProt P58012), for which the log2 fold change was inactive: -0.038.
In the case of GBP2 (UniProt P32456), the log2 fold change was inactive: 0.121.

Compound in another experiment: CN1CCN(c2nc(C3=C(c4c[nH]c5ccccc45)C(=O)NC3=O)c3ccccc3n2)CC1 [sotrastaurin]
The experiment is described as above. A digest of the protocol: as §1
For the target GAS6 isoform 1 (UniProt Q14393), the log2 fold change was inactive: 0.076.
The same measure, in the same setting: the same measure for GALNT3 (UniProt Q14435): inactive: 0.152; for GFI1B (UniProt Q5VTD9): inactive: 0.282; for FZD1 (UniProt Q9UP38): inactive: -0.116.
Take G0S2 (UniProt P27469): the log2 fold change is inactive: 0.066.
Regarding FUT1 (UniProt P19526), the log2 fold change was inactive: 0.03.
FUT11 (UniProt Q495W5): the log2 fold change was inactive: 0.062.
As to FSIP2 (UniProt Q5CZC0), the log2 fold change is inactive: 0.049.
Regarding GABPB2 (UniProt Q8TAK5), the log2 fold change is inactive: 0.03.
Still for that read-out and setting: the same measure for GEMIN7 (UniProt Q9H840): inactive: -0.097; for FUT4 (UniProt P22083): inactive: -0.035.
Consider G3BP2 isoform 2 (UniProt Q9UN86), for which the log2 fold change was inactive: 0.02.
In the case of GANC (UniProt Q8TET4), the log2 fold change was inactive: 0.037.
On the same count and under the same terms, the same measure for GAB3 isoform 2 (UniProt Q8WWW8): inactive: 0.047; for GADD45A (UniProt P24522): inactive: 0.058; for GATA1 (UniProt P15976): inactive: -0.03.
As to GBA2 (UniProt Q9HCG7), the log2 fold change is inactive: 0.001.
With GDE1 (UniProt Q9NZC3), the log2 fold change is inactive: -0.064.
Regarding GART (UniProt C9JZG2), the log2 fold change was inactive: 0.09.
As for GBP2 (UniProt P32456), the log2 fold change was inactive: 0.077.
